For 1 molecule, binding results are on record in patent publication US20200095327A1 (DRAGONFLY THERAPEUTICS, published 2020).

Sequences of proteins named here, by UniProt entry; tags and fusion partners are left off. Residues count along the entry.
UniProt P20138, residues 18-364: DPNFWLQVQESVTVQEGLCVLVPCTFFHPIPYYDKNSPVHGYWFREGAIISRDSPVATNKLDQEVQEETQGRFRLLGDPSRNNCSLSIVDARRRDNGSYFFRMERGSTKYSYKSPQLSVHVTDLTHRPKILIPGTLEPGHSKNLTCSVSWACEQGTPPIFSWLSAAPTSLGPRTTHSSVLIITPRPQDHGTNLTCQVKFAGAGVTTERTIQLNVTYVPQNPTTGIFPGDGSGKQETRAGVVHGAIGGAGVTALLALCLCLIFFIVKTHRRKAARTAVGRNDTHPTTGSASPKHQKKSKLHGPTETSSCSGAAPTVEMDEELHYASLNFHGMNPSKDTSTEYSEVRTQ

No constants are given. Whether binding was seen depends on the method and setting. Some results given as binding are weak or reduced against the parent protein; the word gives no strength.

In the experiment the target is T1, CD33 expressed on MV4-11 human AML cells (human, UniProt P20138 18-364).
T1 construct: whole, on cells; also called cell-expressed CD33
Description: flow cytometry on MV4-11 cells, MFI fold over background.

B1: parental anti-CD33 monoclonal antibody (antibody, V domains shown)
VH: QVQLVQSGAEVKKPGASVKVSCKASGYTFTDYVVHWVRQAPGQGLEWMGYINPYNDGTKYNEKFKGRVTMTRDTSISTAYMELSRLRSDDTAVYYCARDYRYEVYGMDYWGQGTLVTVSS
VL: DIVLTQSPASLAVSPGQRATITCTASSSVNYIHWYQQKPGQPPKLLIYDTSKVASGVPARFSGSGSGTDFTLTINPVEANDTANYYCQQWRSYPLTFGQGTKLEIK
Take B1: the binding result was “binds”.
